# Results as given in the supplement of paper PMC12819154, “High-throughput peptide-centric local stability assay extends protein–ligand identification to membrane proteins, tissues and bacteria” (Nature Structural & Molecular Biology, 2025).
# By UniProt entry, the sequences of proteins in these tests, tags left out. Where a name states a change or a piece, a line headed by the entry shows the natural chain unless it says otherwise.
# UniProt P40926: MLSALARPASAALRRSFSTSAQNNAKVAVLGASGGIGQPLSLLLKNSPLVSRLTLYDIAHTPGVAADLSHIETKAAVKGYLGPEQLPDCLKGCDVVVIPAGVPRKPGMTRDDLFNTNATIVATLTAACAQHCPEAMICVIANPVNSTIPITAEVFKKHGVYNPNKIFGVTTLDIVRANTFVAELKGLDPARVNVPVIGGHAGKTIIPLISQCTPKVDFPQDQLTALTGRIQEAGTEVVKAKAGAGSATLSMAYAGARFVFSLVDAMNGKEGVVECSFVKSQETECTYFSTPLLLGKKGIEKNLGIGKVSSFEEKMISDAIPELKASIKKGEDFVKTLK
# UniProt P40616: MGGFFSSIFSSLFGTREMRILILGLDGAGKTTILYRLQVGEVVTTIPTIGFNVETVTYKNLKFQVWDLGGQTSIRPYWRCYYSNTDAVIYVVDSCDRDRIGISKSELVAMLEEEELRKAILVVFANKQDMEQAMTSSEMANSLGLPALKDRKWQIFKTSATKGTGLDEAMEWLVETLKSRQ
# UniProt P41162: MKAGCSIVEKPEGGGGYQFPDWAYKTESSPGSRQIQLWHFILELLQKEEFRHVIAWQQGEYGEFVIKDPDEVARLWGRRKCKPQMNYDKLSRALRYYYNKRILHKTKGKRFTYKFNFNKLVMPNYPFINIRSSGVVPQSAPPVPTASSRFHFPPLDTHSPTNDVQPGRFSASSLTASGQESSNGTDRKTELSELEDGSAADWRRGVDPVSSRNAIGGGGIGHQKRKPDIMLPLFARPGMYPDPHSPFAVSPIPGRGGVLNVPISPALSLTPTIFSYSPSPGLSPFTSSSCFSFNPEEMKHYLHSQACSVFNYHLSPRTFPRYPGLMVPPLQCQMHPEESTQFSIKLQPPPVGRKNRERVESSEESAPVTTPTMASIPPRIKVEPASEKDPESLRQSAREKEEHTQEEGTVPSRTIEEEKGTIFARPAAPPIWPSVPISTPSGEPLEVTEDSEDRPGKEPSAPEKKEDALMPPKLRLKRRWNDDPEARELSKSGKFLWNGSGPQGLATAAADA
# UniProt P41134: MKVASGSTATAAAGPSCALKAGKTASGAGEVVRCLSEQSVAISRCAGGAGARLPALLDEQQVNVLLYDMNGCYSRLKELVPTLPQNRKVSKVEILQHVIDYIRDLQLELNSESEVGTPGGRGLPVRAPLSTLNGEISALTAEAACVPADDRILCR
# UniProt P35244: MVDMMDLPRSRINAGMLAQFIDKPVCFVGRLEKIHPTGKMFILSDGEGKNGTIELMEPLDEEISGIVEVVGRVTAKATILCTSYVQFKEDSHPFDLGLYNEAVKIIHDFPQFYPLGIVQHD
# UniProt P36959: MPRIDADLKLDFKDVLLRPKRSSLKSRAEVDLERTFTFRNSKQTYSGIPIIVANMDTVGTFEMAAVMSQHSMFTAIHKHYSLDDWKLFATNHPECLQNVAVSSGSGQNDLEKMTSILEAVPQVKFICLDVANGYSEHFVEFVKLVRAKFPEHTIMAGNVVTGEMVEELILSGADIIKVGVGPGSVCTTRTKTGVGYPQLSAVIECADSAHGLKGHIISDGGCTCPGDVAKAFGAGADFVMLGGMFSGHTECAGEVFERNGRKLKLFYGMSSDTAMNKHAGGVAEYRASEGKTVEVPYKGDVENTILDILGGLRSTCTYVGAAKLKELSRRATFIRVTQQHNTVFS
# UniProt P45973, whole entry: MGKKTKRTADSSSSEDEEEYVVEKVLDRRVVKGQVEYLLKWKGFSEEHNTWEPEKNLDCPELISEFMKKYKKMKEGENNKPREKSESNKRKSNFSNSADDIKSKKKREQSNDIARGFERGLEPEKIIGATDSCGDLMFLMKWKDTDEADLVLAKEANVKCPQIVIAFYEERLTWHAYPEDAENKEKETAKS
# UniProt P40227, whole entry: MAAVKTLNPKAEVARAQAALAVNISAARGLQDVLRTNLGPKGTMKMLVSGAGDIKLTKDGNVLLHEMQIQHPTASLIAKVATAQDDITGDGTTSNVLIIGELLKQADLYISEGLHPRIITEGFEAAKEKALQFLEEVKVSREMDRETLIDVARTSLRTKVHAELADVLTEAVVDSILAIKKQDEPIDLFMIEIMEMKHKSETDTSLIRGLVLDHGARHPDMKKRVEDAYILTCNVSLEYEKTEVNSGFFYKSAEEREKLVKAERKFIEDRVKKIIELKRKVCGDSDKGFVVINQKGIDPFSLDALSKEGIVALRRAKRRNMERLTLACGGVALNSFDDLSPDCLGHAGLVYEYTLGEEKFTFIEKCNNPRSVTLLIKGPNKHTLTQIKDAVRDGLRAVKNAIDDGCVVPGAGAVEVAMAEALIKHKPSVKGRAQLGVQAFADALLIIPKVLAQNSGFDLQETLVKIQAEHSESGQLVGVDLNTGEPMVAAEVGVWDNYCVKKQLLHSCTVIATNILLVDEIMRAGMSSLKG
# UniProt P35236: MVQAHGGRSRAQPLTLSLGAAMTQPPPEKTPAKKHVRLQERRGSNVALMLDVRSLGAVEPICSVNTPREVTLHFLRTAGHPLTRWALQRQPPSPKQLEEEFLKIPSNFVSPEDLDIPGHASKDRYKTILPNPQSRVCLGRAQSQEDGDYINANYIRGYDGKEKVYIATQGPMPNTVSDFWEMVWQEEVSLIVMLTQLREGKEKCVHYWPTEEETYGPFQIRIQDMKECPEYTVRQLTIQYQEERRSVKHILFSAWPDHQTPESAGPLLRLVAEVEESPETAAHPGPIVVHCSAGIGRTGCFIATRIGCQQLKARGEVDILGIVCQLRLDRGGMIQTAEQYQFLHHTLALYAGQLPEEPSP
# UniProt P42566: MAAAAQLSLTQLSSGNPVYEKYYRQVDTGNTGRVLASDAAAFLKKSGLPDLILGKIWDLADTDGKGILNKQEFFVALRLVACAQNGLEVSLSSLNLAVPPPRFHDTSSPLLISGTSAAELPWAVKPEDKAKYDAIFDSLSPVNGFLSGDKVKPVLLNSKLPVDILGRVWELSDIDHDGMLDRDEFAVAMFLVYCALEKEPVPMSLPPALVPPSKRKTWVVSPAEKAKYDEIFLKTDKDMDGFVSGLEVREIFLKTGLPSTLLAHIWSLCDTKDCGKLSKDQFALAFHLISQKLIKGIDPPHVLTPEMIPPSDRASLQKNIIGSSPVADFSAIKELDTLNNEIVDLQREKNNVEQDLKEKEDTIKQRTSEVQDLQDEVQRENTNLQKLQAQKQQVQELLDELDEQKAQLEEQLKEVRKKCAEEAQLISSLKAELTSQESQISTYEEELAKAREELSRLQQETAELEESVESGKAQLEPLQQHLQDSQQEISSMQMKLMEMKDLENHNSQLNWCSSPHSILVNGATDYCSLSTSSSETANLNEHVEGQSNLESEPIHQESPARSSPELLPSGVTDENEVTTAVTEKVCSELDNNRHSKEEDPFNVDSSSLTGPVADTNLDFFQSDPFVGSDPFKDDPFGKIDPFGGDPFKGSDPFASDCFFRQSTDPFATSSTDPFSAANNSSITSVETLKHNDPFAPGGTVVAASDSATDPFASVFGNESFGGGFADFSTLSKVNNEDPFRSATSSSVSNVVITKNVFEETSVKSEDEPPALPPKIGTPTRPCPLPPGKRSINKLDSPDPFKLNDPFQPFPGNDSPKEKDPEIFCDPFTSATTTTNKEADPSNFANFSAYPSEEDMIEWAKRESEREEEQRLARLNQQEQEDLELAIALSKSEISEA
# UniProt P30414: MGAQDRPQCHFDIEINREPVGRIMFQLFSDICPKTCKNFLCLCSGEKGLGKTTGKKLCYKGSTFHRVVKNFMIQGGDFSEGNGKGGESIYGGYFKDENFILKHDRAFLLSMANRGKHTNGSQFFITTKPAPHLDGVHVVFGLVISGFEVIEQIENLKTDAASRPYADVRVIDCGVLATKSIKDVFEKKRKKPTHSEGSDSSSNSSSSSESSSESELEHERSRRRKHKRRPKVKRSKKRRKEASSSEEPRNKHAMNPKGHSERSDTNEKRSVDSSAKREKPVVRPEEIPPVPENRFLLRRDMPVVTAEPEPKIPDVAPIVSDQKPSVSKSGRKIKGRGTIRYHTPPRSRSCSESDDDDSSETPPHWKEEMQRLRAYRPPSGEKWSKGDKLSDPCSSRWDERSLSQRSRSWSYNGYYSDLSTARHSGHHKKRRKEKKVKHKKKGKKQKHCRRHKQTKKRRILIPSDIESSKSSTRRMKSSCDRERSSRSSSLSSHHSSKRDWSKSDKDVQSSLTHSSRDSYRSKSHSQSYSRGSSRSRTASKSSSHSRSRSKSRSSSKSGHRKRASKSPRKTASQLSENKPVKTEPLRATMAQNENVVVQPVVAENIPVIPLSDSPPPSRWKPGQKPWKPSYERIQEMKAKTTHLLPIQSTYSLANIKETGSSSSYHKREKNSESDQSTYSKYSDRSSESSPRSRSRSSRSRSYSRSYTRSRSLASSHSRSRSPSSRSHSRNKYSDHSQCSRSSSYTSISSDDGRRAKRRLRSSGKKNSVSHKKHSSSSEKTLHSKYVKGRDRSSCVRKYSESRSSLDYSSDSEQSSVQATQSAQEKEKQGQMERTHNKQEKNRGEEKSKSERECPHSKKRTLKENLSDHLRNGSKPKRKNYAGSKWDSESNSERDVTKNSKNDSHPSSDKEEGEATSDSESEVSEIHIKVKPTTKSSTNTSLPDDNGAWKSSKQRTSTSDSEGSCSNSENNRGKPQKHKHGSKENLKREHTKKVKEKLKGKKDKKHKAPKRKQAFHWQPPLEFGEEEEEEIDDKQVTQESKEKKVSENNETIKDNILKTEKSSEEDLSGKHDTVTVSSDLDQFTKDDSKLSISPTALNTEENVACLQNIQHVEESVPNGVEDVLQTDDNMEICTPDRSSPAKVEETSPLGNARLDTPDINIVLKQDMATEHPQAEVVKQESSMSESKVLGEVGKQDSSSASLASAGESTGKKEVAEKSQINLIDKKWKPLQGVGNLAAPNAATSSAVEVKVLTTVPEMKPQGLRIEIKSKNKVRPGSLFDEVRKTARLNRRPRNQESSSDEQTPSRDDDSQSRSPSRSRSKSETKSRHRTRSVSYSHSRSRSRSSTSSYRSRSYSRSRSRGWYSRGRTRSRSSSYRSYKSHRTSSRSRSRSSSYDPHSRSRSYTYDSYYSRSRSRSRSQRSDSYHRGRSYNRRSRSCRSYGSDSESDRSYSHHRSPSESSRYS
# UniProt P31327: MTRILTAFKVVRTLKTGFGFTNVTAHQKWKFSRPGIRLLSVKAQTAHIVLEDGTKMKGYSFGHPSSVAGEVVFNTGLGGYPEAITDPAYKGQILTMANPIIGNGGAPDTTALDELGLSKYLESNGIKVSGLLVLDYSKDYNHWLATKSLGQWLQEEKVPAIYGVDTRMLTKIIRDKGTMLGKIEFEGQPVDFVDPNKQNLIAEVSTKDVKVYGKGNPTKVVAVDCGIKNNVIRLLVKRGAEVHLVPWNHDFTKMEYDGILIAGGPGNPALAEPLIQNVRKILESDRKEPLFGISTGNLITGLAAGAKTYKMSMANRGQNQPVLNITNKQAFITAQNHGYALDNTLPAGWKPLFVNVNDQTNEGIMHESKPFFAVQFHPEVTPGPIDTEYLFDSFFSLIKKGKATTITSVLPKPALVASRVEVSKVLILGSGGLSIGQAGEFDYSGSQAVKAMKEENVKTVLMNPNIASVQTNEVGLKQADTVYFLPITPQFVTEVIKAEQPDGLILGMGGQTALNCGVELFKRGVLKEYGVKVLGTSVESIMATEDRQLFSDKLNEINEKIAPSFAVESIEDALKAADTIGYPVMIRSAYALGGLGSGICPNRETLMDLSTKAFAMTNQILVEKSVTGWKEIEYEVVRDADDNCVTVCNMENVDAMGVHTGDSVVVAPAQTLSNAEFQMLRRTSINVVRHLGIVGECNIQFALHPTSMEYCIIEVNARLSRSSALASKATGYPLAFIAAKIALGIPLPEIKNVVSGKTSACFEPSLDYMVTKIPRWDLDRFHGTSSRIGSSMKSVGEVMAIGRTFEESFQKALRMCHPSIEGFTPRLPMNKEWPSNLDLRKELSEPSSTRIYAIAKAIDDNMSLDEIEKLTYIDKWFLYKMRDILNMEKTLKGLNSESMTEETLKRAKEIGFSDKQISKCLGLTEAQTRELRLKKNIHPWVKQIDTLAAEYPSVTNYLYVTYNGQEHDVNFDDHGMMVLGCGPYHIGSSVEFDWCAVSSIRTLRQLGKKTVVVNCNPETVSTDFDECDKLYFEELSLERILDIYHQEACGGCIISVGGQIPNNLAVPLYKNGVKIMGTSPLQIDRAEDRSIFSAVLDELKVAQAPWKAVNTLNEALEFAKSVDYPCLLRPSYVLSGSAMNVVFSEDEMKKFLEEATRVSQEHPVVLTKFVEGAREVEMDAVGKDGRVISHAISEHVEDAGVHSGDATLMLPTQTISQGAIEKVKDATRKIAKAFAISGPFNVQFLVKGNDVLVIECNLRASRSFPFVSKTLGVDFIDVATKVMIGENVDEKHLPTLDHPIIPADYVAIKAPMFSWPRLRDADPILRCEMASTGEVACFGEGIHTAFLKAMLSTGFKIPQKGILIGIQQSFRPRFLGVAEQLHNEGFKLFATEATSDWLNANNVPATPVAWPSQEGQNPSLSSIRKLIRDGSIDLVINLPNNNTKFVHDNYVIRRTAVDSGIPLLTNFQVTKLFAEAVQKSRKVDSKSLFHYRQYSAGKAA
# Some of the results follow. Small differences around the control level are noise.
# Compound: CN[C@@H]1C[C@H]2O[C@@](C)([C@@H]1OC)n1c3ccccc3c3c4c(c5c6ccccc6n2c5c31)C(=O)NC4 [staurosporine]
# Assay: log2 fold change of tryptic peptide abundance, ligand vs vehicle (limited proteolysis) (log2 ratio); higher = more trypsin-susceptible (destabilized)
# Settings: ligand concentration: 20 uM; sample: K562 cleared lysate; digestion: 4 min, 22 C (HT-PELSA RT4min, Orbitrap Astral)
row,Target,log2 fold change
1,"MDH2 (peptide sequence: IFGVTTLDIVR, peptide start residue: 166) (UniProt P40926)",0.148
2,"ARL1 (peptide sequence: ILILGLDGAGK, peptide start residue: 20) (UniProt P40616)",0.428
3,"YWHAB (peptide sequence: AVTEQGHELSNEER, peptide start residue: 30) (UniProt P31946)",-0.122
4,"ETV3 (peptide sequence: KTELSELEDGSAADWRR, peptide start residue: 188) (UniProt P41162)",-0.496
5,"SOX11 (peptide sequence: APAAAGAK, peptide start residue: 172) (UniProt P35716)",0.144
6,"ID1 (peptide sequence: TASGAGEVVR, peptide start residue: 24) (UniProt P41134)",-0.151
7,"RPA3 (peptide sequence: INAGMLAQFIDKPVCFVGRLEK, peptide start residue: 12) (UniProt P35244)",-0.241
8,"TPP2 (peptide sequence: DLKEEFTEALR, peptide start residue: 1016) (UniProt P29144)",-0.309
9,"GMPR (peptide sequence: VTQQHNTVFS, peptide start residue: 336) (UniProt P36959)",-0.287
10,"CBX5 (peptide sequence: LTWHAYPEDAENKEK, peptide start residue: 172) (UniProt P45973)",-0.155
11,"RPL12 (peptide sequence: HSGNITFDEIVNIARQMRHR, peptide start residue: 100) (UniProt P30050)",1.28
12,"STIP1 (peptide sequence: FMNPFNMPNLYQKLESDPRTR, peptide start residue: 124) (UniProt P31948)",0.311
13,"TMPO (peptide sequence: NRPPLPAGTNSK, peptide start residue: 49) (UniProt P42166)",0.268
14,"SERPINB1 (peptide sequence: FQSLNADINKR, peptide start residue: 70) (UniProt P30740)",0.221
15,"UniProt P38405 (peptide sequence: FQVDKVNFHMFDVGGQRDER, peptide start residue: 855)",0.466
16,"PPM1A (peptide sequence: TGFLEIDEHMR, peptide start residue: 103) (UniProt P35813)",-0.205
17,"PPP1R2 (peptide sequence: GNVDEELSK, peptide start residue: 34) (UniProt P41236)",0.252
18,"CCT6A (peptide sequence: TLNPKAEVARAQAALAVNISAAR, peptide start residue: 6) (UniProt P40227)",0.774
19,"PTPN7 (peptide sequence: EVTLHFLR, peptide start residue: 69) (UniProt P35236)",0.0916
20,"RFC4 (peptide sequence: IVILDEADSMTSAAQAALR, peptide start residue: 146) (UniProt P35249)",0.363
21,"MKI67 (peptide sequence: VDMKEEPLAVSK, peptide start residue: 2489) (UniProt P46013)",-0.347
22,"EPS15 (peptide sequence: EKNNVEQDLK, peptide start residue: 348) (UniProt P42566)",0.32
23,"PSMC4 (peptide sequence: MEEIGILVEK, peptide start residue: 1) (UniProt P43686)",-0.263
24,"SMARCA1 (peptide sequence: LITDNTVEER, peptide start residue: 622) (UniProt P28370)",-0.285
25,"RPL3 (peptide sequence: KAHLMEIQVNGGTVAEKLDWAR, peptide start residue: 177) (UniProt P39023)",-0.173
26,"MCM5 (peptide sequence: RLAALPNVYEVISK, peptide start residue: 324) (UniProt P33992)",0.239
27,"CDC25A (peptide sequence: GCLHSHGLQEGK, peptide start residue: 158) (UniProt P30304)",0.248
28,"NKTR (peptide sequence: LSDPCSSR, peptide start residue: 389) (UniProt P30414)",-0.27
29,"CPS1 (peptide sequence: GILIGIQQSFRPR, peptide start residue: 1361) (UniProt P31327)",-0.0154
